In PubChem BioAssay AID504327 (National Center for Advancing Translational Sciences (NCATS), 2011):
In all, about 390,000 compounds went through this assay and about 820 (0.21%) were called active. The inconclusive results got no clear call from the source; some entries with a clear call stand among them for comparison. Calls come from the whole dose curve; as a rule, active = well fitted inhibition curve with a large enough effect; inconclusive = small, poorly fitted or top-dose-only effect, or another doubt; inactive = no such curve, though single readings can be large or run the other way. A potency beside an inconclusive call is a rough fit, not a confirmed value.

Sequences of proteins named here, by UniProt entry; tags and fusion partners are left off.
UniProt Q92830, whole entry, looked up: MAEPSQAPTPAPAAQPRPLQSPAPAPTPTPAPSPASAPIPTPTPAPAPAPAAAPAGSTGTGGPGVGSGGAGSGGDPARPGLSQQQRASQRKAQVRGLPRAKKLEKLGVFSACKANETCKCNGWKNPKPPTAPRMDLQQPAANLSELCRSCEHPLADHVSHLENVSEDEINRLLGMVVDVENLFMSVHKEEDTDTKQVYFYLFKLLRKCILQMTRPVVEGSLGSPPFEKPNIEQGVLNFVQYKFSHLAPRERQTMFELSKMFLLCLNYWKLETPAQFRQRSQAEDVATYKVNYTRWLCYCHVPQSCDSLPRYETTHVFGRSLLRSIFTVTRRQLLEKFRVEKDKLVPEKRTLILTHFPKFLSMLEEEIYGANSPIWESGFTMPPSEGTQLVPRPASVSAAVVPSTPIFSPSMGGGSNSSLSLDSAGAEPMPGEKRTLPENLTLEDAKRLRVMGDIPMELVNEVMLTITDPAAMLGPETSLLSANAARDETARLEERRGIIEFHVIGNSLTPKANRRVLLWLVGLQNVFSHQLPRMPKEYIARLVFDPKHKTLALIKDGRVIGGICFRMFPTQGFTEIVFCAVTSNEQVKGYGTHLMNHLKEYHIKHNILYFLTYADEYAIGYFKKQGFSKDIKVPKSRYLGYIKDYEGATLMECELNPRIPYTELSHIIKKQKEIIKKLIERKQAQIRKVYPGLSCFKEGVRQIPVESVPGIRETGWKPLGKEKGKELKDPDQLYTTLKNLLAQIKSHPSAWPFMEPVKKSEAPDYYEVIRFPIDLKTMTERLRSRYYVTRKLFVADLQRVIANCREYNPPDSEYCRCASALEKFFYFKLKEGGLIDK

Biological target: Histone acetyltransferase KAT2A (Homo sapiens) (UniProt Q92830)
Experiment: qHTS Assay for Inhibitors of GCN5L2
Conditions: GCN5L2 HAT assay, ThioGlo1 CoA-SH fluorescence; activity change, negative = inhibition: at 58.9 µM (top of the series) unless noted
In short: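 Titration-based screen in which CoA formation is detected via maleimide probe ThioGlo1 (50uM) turning fluorescent on thiol reaction; substrates H3(1-25) 75uM and acetyl-CoA 70uM, GCN5L2 20nM, 20 min incubation at room temperature.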
% is set by controls: 0 for no effect and ±100 for the full control effect; potency is the fitted concentration of half-maximal effect.

Row | Compound | activity change, negative = inhibition | Potency
1 | CCOC(=O)N1CCN(C(=O)c2ccc(CS(=O)(=O)c3c(Cl)cccc3Cl)o2)CC1 | inconclusive: -30.4% [inhibitor] | –
2 | COC(=O)[C@@]1(Cc2ccc(F)cc2)[C@H]2c3cc(C(=O)N(C)C)n(Cc4c(CO)[nH]cc(C)c4=O)c3C[C@H]2CN1C(=O)c1ccccc1 | – | inactive
3 | O=C(NCc1cccnc1)c1ccc(NC(=O)c2ccco2)cc1 | – | inconclusive: 39.8 µM [inhibitor, single point]
4 | O=C1C(Cl)=C(Nc2ccccc2)C(=O)c2ccccc21 | – | inactive
5 | CC1(OC(=O)CCc2ccccc2)C(=O)C=C2C=C(c3ccsc3)OC=C2C1=O (centres undefined) | – | inactive
6 | COc1ccc(-c2nc3cnccn3c2NC(C)(C)CC(C)(C)C)cc1O | – | inconclusive: 28.2 µM [inhibitor, single point]
7 | Clc1ccc(/C=N/Nc2nnc(-c3ncc[nH]3)c3ccccc23)cc1 | – | inconclusive: 12.6 µM [inhibitor, partial curve]
8 | Cc1ccc(S(=O)(=O)C(CCC(=O)c2ccc(Cl)cc2)C(N)=O)cc1 (centres undefined) | – | inconclusive: 0.501 µM [inhibitor, single point]
9 | CCn1c2ccccc2c2cc(/C=N/NC(=O)c3ccccc3)ccc21 | – | inactive
10 | O=C1NCCn2ccc(=O)cc21 | – | inactive
11 | Cc1nn(Cc2c(F)c(F)c(F)c(F)c2F)c(C)c1NC(=O)c1ccnn1C | – | inconclusive: 0.112 µM [inhibitor, full curve, poor fit]
12 | CN=C(NC#N)NCCSC[C@H]1N=CN=C1C | – | inactive
13 | CCOc1ccc(S(=O)(=O)Nc2nc3ccccc3nc2-n2ccc(=NC(=O)c3cccs3)cc2)cc1 | – | inconclusive: 39.8 µM [inhibitor, single point]
14 | CC(=O)N(Cc1ccco1)C1(C(=O)NC2CCCC2)CCCCC1 | – | inconclusive: 7.08 µM [inhibitor, single point]
15 | O=C(NC(Cc1ccccc1)C(=O)O)OCc1ccccc1 (centres undefined) | – | inactive
16 | NCCNc1ccc(C(=O)N2c3ccccc3Sc3ccccc32)cc1[N+](=O)[O-] | – | inactive
17 | CO[C@]12C(COC(N)=O)C3=C(C(=O)C(C)=C(N)C3=O)N1CC1NC12 (some centres undefined) | – | inactive
18 | O=C(c1ccc(Cl)cc1)C1CCCN(Cc2ccc(Oc3ncccn3)cc2)C1 (centres undefined) | – | inactive
19 | Fc1ccccc1/C=N/Nc1ccc(Cl)nn1 | – | inconclusive: 0.708 µM [inhibitor, single point]
20 | O=C(COC(=O)c1ccccn1)Nc1ccc(S(=O)(=O)N2CCOCC2)cc1 | – | inconclusive: 39.8 µM [inhibitor, single point]
21 | CCOc1ccccc1C(=O)NCCCCCC(=O)O | – | inconclusive: 0.708 µM [inhibitor, single point]
22 | COc1ccc(-c2noc(N3CCC(C(=O)Nc4ccccc4F)CC3)n2)cc1 | – | inconclusive: 7.08 µM [inhibitor, single point]
23 | Cc1ccc(C(C(=O)NCc2ccco2)N(C(=O)CNC(=O)c2cccs2)c2ccc(C)cc2)cc1 (centres undefined) | – | inconclusive: 7.08 µM [inhibitor, single point]

Row | Compound | activity change, negative = inhibition | Potency
24 | O=C(NCCO)Nc1ccc2nc(-c3ccco3)c(-c3ccco3)nc2c1 | – | inconclusive: 10 µM [inhibitor, partial curve]
25 | C=CCn1cc(/C=C2\SC(N3CCOCC3)=NC2=O)c2ccccc21 | – | inconclusive: 7.08 µM [inhibitor, single point]
26 | O=C(c1ncn(Cc2ccccc2)c1C(=O)N1CCN(c2ccccc2)CC1)N1CCN(c2ccccc2)CC1 | – | inactive
27 | COc1ccccc1C(=O)NCc1ccco1 | – | inconclusive: 39.8 µM [inhibitor, single point]
28 | O=C(NC(=S)Nc1ccccc1C(=O)O)c1ccc2ccccc2c1 | – | inconclusive: 39.8 µM [inhibitor, single point]
29 | O=C(COc1ccccc1Br)N1CCN(c2ccccc2)CC1 | inconclusive: -81.8% [inhibitor] [at 0.501 µM] | –
30 | Cc1ccc(Cl)cc1N1CCN(C(=O)Cn2nc(C)c3sc4ccccc4c3c2=O)CC1 | – | inconclusive: 25.1 µM [inhibitor, single point]
31 | Cc1cc(C(=O)OCC(=O)c2cccc([N+](=O)[O-])c2)c2cccc(C)c2n1 | – | inconclusive: 0.199 µM [inhibitor, full curve, poor fit]
32 | Cc1ccc(C(=O)N/N=C\c2ccc[nH]2)cc1[N+](=O)[O-] | – | inconclusive: 0.891 µM [inhibitor, full curve, poor fit]
33 | Cc1nnc(SCC(=O)N2N=C(c3ccc(Cl)cc3)CC2c2ccco2)[nH]c1=O (centres undefined) | – | inactive
34 | Cc1c(S(=O)(=O)N2CCN(C(c3ccccc3)c3ccccc3)CC2)c(=O)n(C)c(=O)n1C | – | inconclusive: 3.16 µM [inhibitor, single point]
35 | O=C(Cc1ccccc1)N/N=C/c1cc(Br)cc(Br)c1O | – | inconclusive: 39.8 µM [inhibitor, partial curve, poor fit]
36 | Cc1cnc(C(=O)N2CCCC(C(=O)c3cccc(OC(C)C)c3)C2)cn1 (centres undefined) | – | inconclusive: 39.8 µM [inhibitor, single point]
37 | CC1=C(C(=O)Nc2cccnc2)C(c2ccccn2)n2nnnc2N1 (centres undefined) | – | active: 7.08 µM
38 | Cc1ccc(-c2cc(-c3ccccc3)c(C#N)c(N)n2)o1 | – | inconclusive: 11.2 µM [inhibitor, partial curve]
39 | O=[N+]([O-])c1c(Nc2ccccn2)cc(Cl)c2nonc12 | – | inconclusive: 5.01 µM [inhibitor, single point]
40 | C=CCN1CCN(C(=O)c2cc3c(s2)CCC(CC)C3)CC1 (centres undefined) | – | inactive
41 | O=C1NC(c2ccccc2Br)=N/C1=C\c1ccco1 | – | inconclusive: 5.01 µM [inhibitor, full curve, poor fit]
42 | COc1ccc(OC)c(-n2c(CNC3CCN(Cc4ccccc4)CC3)nc3ccccc3c2=O)c1 | – | inconclusive: 39.8 µM [inhibitor, single point]
43 | COc1ccc(N2Cc3ccccc3C2=O)cc1 | – | inactive
44 | COc1ccc(-c2cc(=O)c3c(O)cc(O[C@@H]4O[C@H](CO[C@@H]5O[C@@H](C)[C@H](O)[C@@H](O)[C@H]5O)[C@@H](O)[C@H](O)[C@H]4O)cc3o2)cc1O | – | inconclusive: 39.8 µM [inhibitor, single point]
45 | COCc1cc(=O)oc2cc(NS(=O)(=O)c3ccc(C)cc3)ccc12 | – | inconclusive: 5.01 µM [inhibitor, partial curve, poor fit]
46 | C=CCOc1ccc(NC(=O)C(=O)NCCCn2ccnc2)cc1 | – | inconclusive: 8.91 µM [inhibitor, single point]

Row | Compound | activity change, negative = inhibition | Potency
47 | O=[N+]([O-])c1ccc2c(c1)nc(CO)n2Cc1ccccc1 | – | inconclusive: 39.8 µM [inhibitor, single point]
48 | CCc1cc2c3c(c1)C(C)CC(C)(C)N3C(=O)/C2=C1\SC(=O)NC1=O (centres undefined) | – | inactive
49 | O=C(Nc1cccc(S(=O)(=O)N2CCCCC2)c1)C1CC(=O)N(c2ccc3c(c2)OCCO3)C1 (centres undefined) | – | inconclusive: 11.2 µM [inhibitor, partial curve]
50 | c1ccc(-c2cccc(N3CCCC4(CCNCC4)C3)c2)cc1 | – | inactive
51 | CCCC(=O)OCC(=O)Nc1ccc([N+](=O)[O-])cc1C#N | – | inconclusive: 3.55 µM [inhibitor, full curve, poor fit]
52 | O=C(Oc1ccccc1)N1CCC[C@@]2(CCN(c3ccccc3)C2)C1 | – | inactive
53 | COC(=O)[C@@]1(C)[C@H]2C(=O)N(C)C(=O)[C@H]2[C@H]2CN=C(SCc3ccccc3)N21 | – | inactive
54 | O=[N+]([O-])c1ccc(NNC(=S)Nc2ccc(F)cc2)cc1 | – | inactive
55 | COc1ccc(-c2ccc(CCC(=O)O)n2NC(=O)c2ccc(O)cc2)cc1 | – | inconclusive: 0.708 µM [inhibitor, single point]
56 | CCOC(=O)C1(Cc2cccc(Cl)c2)CCCN(C(=O)c2cc(C)on2)C1 (centres undefined) | – | inconclusive: 0.447 µM [inhibitor, full curve, poor fit]
57 | Cc1ccc2c(C)c(C(=O)N(Cc3ccc(N(C)C)cc3)Cc3ccco3)oc2c1C | – | inactive
58 | CC(=O)Nc1ccc(C)cc1-c1nc2ccccc2n(CC(=O)c2ccc(C)c(C)c2)c1=O | – | inactive
59 | O=c1c2ccccc2nc(SCc2ccccc2Cl)n1Cc1ccccc1 | – | inconclusive: 8.91 µM [inhibitor, single point]
60 | COC(=O)c1c(OC)cc2c(c1C)Oc1c(Cl)c(OC(C)=O)c(Cl)c(C)c1C(=O)O2 | – | inconclusive: 39.8 µM [inhibitor, single point]
61 | O=C(CSc1ccccc1F)NC(=O)NCc1ccco1 | – | inconclusive: 39.8 µM [inhibitor, single point]
62 | Cc1ccc(C)c(NC(=O)Cn2c(SCC(=O)NCc3ccccc3)nc3ccccc32)c1 | – | inactive
63 | O=C1CCC(C(=O)N2CCCO2)CN1Cc1cccc(C(F)(F)F)c1 (centres undefined) | – | inconclusive: 5.01 µM [inhibitor, full curve, poor fit]
64 | CC(C)CCNC(=O)C1CCN(C(=O)c2cc3sccc3n2Cc2ccc(Cl)cc2)CC1 | – | inactive
65 | COC(=O)c1ccccc1S(=O)(=O)N(Cc1ccco1)Cc1cc2cc(OC)ccc2[nH]c1=O | – | inactive
66 | CCOC(=O)COc1ccc(Br)cc1/C=C/c1[nH]c(=O)[nH]c(=O)c1[N+](=O)[O-] | – | inconclusive: 39.8 µM [inhibitor, single point]
67 | Fc1ccccc1NC(=S)Nc1cccc2cnccc12 | – | inactive
68 | CCc1nc(SCC(=O)Nc2ccc([N+](=O)[O-])cc2)n[nH]1 | – | inconclusive: 4.47 µM [inhibitor, partial curve]
69 | CC(=O)OC1CC(C)N(C(=O)c2ccccc2)c2ccc(C)cc21 (centres undefined) | – | inconclusive: 3.55 µM [inhibitor, single point]

Part of the list above in order of heavy-atom count, ascending.
Row | Compound | activity change, negative = inhibition | Potency
50 | c1ccc(-c2cccc(N3CCCC4(CCNCC4)C3)c2)cc1 | – | inactive
59 | O=c1c2ccccc2nc(SCc2ccccc2Cl)n1Cc1ccccc1 | – | inconclusive: 8.91 µM [inhibitor, single point]
64 | CC(C)CCNC(=O)C1CCN(C(=O)c2cc3sccc3n2Cc2ccc(Cl)cc2)CC1 | – | inactive
